# Test results as given in the supplement of paper PMC8728848.
# This is one part of the list.
# B1: CBP21 (Serratia marcescens), O83009 (protein)
# chain: MNKTSRTLLSLGLLSAAMFGVSQQANAHGYVESPASRAYQCKLQLNTQCGSVQAEPQSVEGLKGFPQAGPADGHIASADKSTFFELDQQTPTRWNKLNLKTGPNSFTWKLTARHSTTSWRYFITKPNWDASQPLTRASFDLTPFCQFNDGGAIPAAQVTHQCNIPADRSGSHVILAVWDIADTANAFYQAIDVNLSK
# Experiments:
# Test in all cases: glycan array binding signal (z-score within array); higher = stronger binding
# Details in all cases: glycan notation: IUPAC condensed, linker removed; mutation: Y54A
# [1] = target: Fuc(a1-2)Gal
# Outline: (§1)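 The binding signal is a Z-score computed within each array and averaged over linkers. Arrays of the same protein sequence at different concentrations or buffers were also averaged together. Data originate from 3228 arrays in the Consortium for Functional Glycomics database, kept only where the protein sequence was available.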
# [2] = target: Fuc(a1-2)Gal(b1-3)GalNAc
# Outline: as §1
# [3] = target: Fuc(a1-2)Gal(b1-3)GalNAc(a1-3)[Fuc(a1-2)]Gal(b1-4)Glc
# Outline: as §1
# [4] = target: Fuc(a1-2)Gal(b1-3)GalNAc(a1-3)[Fuc(a1-2)]Gal(b1-4)GlcNAc
# Outline: as §1
# [5] = target: Fuc(a1-2)Gal(b1-3)GalNAc(b1-3)Gal
# Outline: as §1
# [6] = target: Fuc(a1-2)Gal(b1-3)GalNAc(b1-3)Gal(a1-4)Gal(b1-4)Glc
# Outline: as §1
# [7] = target: Fuc(a1-2)Gal(b1-3)GalNAc(b1-4)[Neu5Ac(a2-3)]Gal(b1-4)Glc
# Outline: as §1
# [8] = target: Fuc(a1-2)Gal(b1-3)GlcNAc
# Outline: as §1
# [9] = target: Fuc(a1-2)Gal(b1-3)GlcNAc(b1-2)Man(a1-3)[Fuc(a1-2)Gal(b1-3)GlcNAc(b1-2)Man(a1-6)]Man(b1-4)GlcNAc(b1-4)GlcNAc
# Outline: as §1
# [10] = target: Fuc(a1-2)Gal(b1-3)GlcNAc(b1-2)Man(a1-3)[Fuc(a1-2)Gal(b1-3)GlcNAc(b1-2)Man(a1-6)]Man(b1-4)GlcNAc(b1-4)[Fuc(a1-6)]GlcNAc
# Outline: as §1
# [11] = target: Fuc(a1-2)Gal(b1-3)GlcNAc(b1-3)Gal(b1-4)Glc
# Outline: as §1
# [12] = target: Fuc(a1-2)Gal(b1-3)GlcNAc(b1-3)GalNAc
# Outline: as §1
# [13] = target: Fuc(a1-2)Gal(b1-3)GlcNAc(b1-3)[Fuc(a1-2)Gal(b1-3)GlcNAc(b1-6)]GalNAc
# Outline: as §1
# [14] = target: Fuc(a1-2)Gal(b1-3)GlcNAc(b1-3)[Gal(b1-4)GlcNAc(b1-6)]Gal(b1-4)Glc
# Outline: as §1
# [15] = target: Fuc(a1-2)Gal(b1-3)GlcNAc(b1-3)[Neu5Ac(a2-6)Gal(b1-4)GlcNAc(b1-6)]Gal(b1-4)Glc
# Outline: as §1
# [16] = target: Fuc(a1-2)Gal(b1-3)GlcNAc6S
# Outline: as §1
# [17] = target: Fuc(a1-2)Gal(b1-3)[Fuc(a1-4)]GlcNAc
# Outline: as §1
# [18] = target: Fuc(a1-2)Gal(b1-3)[Fuc(a1-4)]GlcNAc(b1-2)Man(a1-3)[Fuc(a1-2)Gal(b1-3)[Fuc(a1-4)]GlcNAc(b1-2)Man(a1-3)]Man(b1-4)GlcNAc(b1-4)GlcNAc
# Outline: as §1
# [19] = target: Fuc(a1-2)Gal(b1-3)[Fuc(a1-4)]GlcNAc(b1-2)Man(a1-3)[Fuc(a1-2)Gal(b1-3)[Fuc(a1-4)]GlcNAc(b1-2)Man(a1-6)]Man(b1-4)GlcNAc(b1-4)[Fuc(a1-6)]GlcNAc(b1-4)[Fuc(a1-6)]GlcNAc
# Outline: as §1
# [20] = target: Fuc(a1-2)Gal(b1-3)[Fuc(a1-4)]GlcNAc(b1-3)[Fuc(a1-3)[Gal(b1-4)]GlcNAc(b1-6)]Gal(b1-4)Glc
# Outline: as §1
# [21] = target: Fuc(a1-2)Gal(b1-3)[Fuc(a1-4)]GlcNAc(b1-3)[Gal(b1-4)GlcNAc(b1-6)]Gal(b1-4)Glc
# Outline: as §1
# [22] = target: Fuc(a1-2)Gal(b1-4)Fuc(a1-3)]GlcNAc(b1-2)Man(a1-3)[Fuc(a1-2)Gal(b1-4)[Fuc(a1-3)]GlcNAc(b1-2)Man(a1-6)]Man(b1-4)GlcNAc(b1-4)GlcNAc
# Outline: as §1
# [23] = target: Fuc(a1-2)Gal(b1-4)Glc
# Outline: as §1
# [24] = target: Fuc(a1-2)Gal(b1-4)Glc6S
# Outline: as §1
# [25] = target: Fuc(a1-2)Gal(b1-4)GlcNAc
# Outline: as §1
# [26] = target: Fuc(a1-2)Gal(b1-4)GlcNAc(b1-2)Man
# Outline: as §1
# [27] = target: Fuc(a1-2)Gal(b1-4)GlcNAc(b1-2)Man(a1-3)[Fuc(a1-2)Gal(b1-4)GlcNAc(b1-2)Man(a1-6)]Man(b1-4)GlcNAc(b1-4)GlcNAc
# Outline: as §1
# [28] = target: Fuc(a1-2)Gal(b1-4)GlcNAc(b1-2)Man(a1-3)[Fuc(a1-2)Gal(b1-4)GlcNAc(b1-2)Man(a1-6)]Man(b1-4)GlcNAc(b1-4)[Fuc(a1-6)]GlcNAc
# Outline: as §1
# [29] = target: Fuc(a1-2)Gal(b1-4)GlcNAc(b1-2)[Fuc(a1-2)Gal(b1-4)GlcNAc(b1-4)]Man(a1-3)[Fuc(a1-2)Gal(b1-4)GlcNAc(b1-2)Man(a1-6)]Man(b1-4)GlcNAc(b1-4)GlcNAc
# Outline: as §1
# [30] = target: Fuc(a1-2)Gal(b1-4)GlcNAc(b1-3)Gal(b1-4)GlcNAc
# Outline: as §1
# [31] = target: Fuc(a1-2)Gal(b1-4)GlcNAc(b1-3)Gal(b1-4)GlcNAc(b1-2)Man(a1-3)[Fuc(a1-2)Gal(b1-4)GlcNAc(b1-3)Gal(b1-4)GlcNAc(b1-2)Man(a1-6)]Man(b1-4)GlcNAc(b1-4)GlcNAc
# Outline: as §1
# [32] = target: Fuc(a1-2)Gal(b1-4)GlcNAc(b1-3)Gal(b1-4)GlcNAc(b1-3)Gal(b1-4)GlcNAc
# Outline: as §1
# [33] = target: Fuc(a1-2)Gal(b1-4)GlcNAc(b1-3)GalNAc
# Outline: as §1
# [34] = target: Fuc(a1-2)Gal(b1-4)GlcNAc(b1-3)[Fuc(a1-2)Gal(b1-4)GlcNAc(b1-6)]GalNAc
# Outline: as §1
# [35] = target: Fuc(a1-2)Gal(b1-4)GlcNAc(b1-3)[Fuc(a1-3)[Gal(b1-4)]GlcNAc(b1-6)]Gal(b1-4)Glc
# Outline: as §1
# [36] = target: Fuc(a1-2)Gal(b1-4)GlcNAc(b1-6)GalNAc
# Outline: as §1
# [37] = target: Fuc(a1-2)Gal(b1-4)GlcNAc6S
# Outline: as §1
binder,measurement,setting,value
B1,glycan array binding signal (z-score),[1],0.247
same,glycan array binding signal (z-score),[2],0.188
same,glycan array binding signal (z-score),[3],1.32
same,glycan array binding signal (z-score),[4],-0.488
same,glycan array binding signal (z-score),[5],-0.538
same,glycan array binding signal (z-score),[6],0.046
same,glycan array binding signal (z-score),[7],0.437
same,glycan array binding signal (z-score),[8],-0.702
same,glycan array binding signal (z-score),[9],-0.854
same,glycan array binding signal (z-score),[10],-0.985
same,glycan array binding signal (z-score),[11],-0.307
same,glycan array binding signal (z-score),[12],0.028
same,glycan array binding signal (z-score),[13],-0.514
same,glycan array binding signal (z-score),[14],-0.46
same,glycan array binding signal (z-score),[15],-0.286
same,glycan array binding signal (z-score),[16],-0.608
same,glycan array binding signal (z-score),[17],-0.275
same,glycan array binding signal (z-score),[18],0.767
same,glycan array binding signal (z-score),[19],0.129
same,glycan array binding signal (z-score),[20],-1.36
same,glycan array binding signal (z-score),[21],-0.05
same,glycan array binding signal (z-score),[22],-0.103
same,glycan array binding signal (z-score),[23],-0.911
same,glycan array binding signal (z-score),[24],0.01
same,glycan array binding signal (z-score),[25],0.658
same,glycan array binding signal (z-score),[26],-0.872
same,glycan array binding signal (z-score),[27],-1.03
same,glycan array binding signal (z-score),[28],0.284
same,glycan array binding signal (z-score),[29],-0.609
same,glycan array binding signal (z-score),[30],0.799
same,glycan array binding signal (z-score),[31],2.34
same,glycan array binding signal (z-score),[32],1.57
same,glycan array binding signal (z-score),[33],-0.464
same,glycan array binding signal (z-score),[34],0.381
same,glycan array binding signal (z-score),[35],-0.407
same,glycan array binding signal (z-score),[36],2.05
same,glycan array binding signal (z-score),[37],-0.485

# In another format: entries from further up
binder	measurement	setting	value
B1	glycan array binding signal (z-score)	[9]	-0.854
same	glycan array binding signal (z-score)	[10]	-0.985
